Results taken from PubChem BioAssay AID493014 (National Center for Advancing Translational Sciences (NCATS), 2011).
Out of some 340,000 compounds screened, about 170 (0.05%) were called active. Inconclusive means that the source gave no clear call. Such entries were picked first, then a sample of the others. Calls come from the whole dose curve; as a rule, active = well fitted inhibition curve with a large enough effect in the signal ratio, with a control signal flat (not every such curve was filed as active); inconclusive = small, poorly fitted or top-dose-only effect, or effect the other way, or a change in a side signal; inactive = flat fitted curve, though single readings scatter; the % refers to the signal ratio. Potencies of inconclusive entries are doubtful fits and often do not repeat.

assay: qHTS Assay to Find Inhibitors of Chronic Active B-Cell Receptor Signaling; conditions: ABC-DLBCL IkBa-CBG/CBR reporter, luminescence ratio (green luciferase fused to IkBa over red control in TMD8 lymphoma cells), 4 h; activity change, negative = inhibition: at 46.1 µM (top of the series);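 for activity change, negative = inhibition: plate controls were basal doxycycline-induced cells for no effect and cells given 10 µM MG132 for full effect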
Outline: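 Cell line TMD8 (human ABC DLBCL), stably expressing tet-inducible CBG68-IkBa fusion and CBR; IMDM/0.5% FBS; cpd up to 46 uM; dox induction, 4 h, 37C/5% CO2; dual luminescence; green/red ratio; MG132 control.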
Potency is the fitted concentration of half-maximal effect.

Row | SMILES | Potency | activity change, negative = inhibition
1 | CC(=O)Oc1ccc(C(=O)NCCc2ccccc2)cc1 | inconclusive: 22.4 µM [falling, partial curve] | 
2 | COc1ccc(C2=NN(c3nc(-c4ccccc4)c(CC(=O)O)s3)C(c3ccco3)C2)cc1 (stereo unspecified) |  | inactive
3 | CCNC(=S)N/N=C/c1ccc(OCC(=O)Nc2ccc(OC)cc2)c(OC)c1 |  | inconclusive: -1.04%
4 | Cc1ccc2c(c1)sc1nc(=O)n(-c3cccc(Cl)c3)c(=O)n12 |  | inconclusive: 5.98%
5 | COc1ccc(-c2noc(C3CCCN(C(=O)Nc4ccccc4F)C3)n2)cc1 (stereo unspecified) | inconclusive: 20 µM [falling, partial curve, poor fit] | 
6 | O=C(CN(Cc1ccccc1Cl)C(=O)Cn1nnc(-c2cccs2)n1)NCC1CCCO1 (stereo unspecified) |  | inconclusive: 0.112%
7 | CC(C)c1ccc(Nc2nnc(SC3CCOC3=O)s2)cc1 (stereo unspecified) |  | inconclusive: -0.943%
8 | N#Cc1cnc2sc3ccccc3n2c1=N | inconclusive: 18.4 µM [falling, single point] | 
9 | CCCN1CCCc2cc(CN(CCCN3CCOCC3)C(=O)Nc3ccc(OCC)cc3)ccc21 |  | inactive
10 | COc1ccc(N(CC(=O)N/N=C/c2ccc(F)cc2)S(=O)(=O)c2ccccc2)cc1 |  | inconclusive: -11.6%
11 | CSc1ccccc1N=CC1=C(O)CC(C)(C)CC1=O |  | inactive
12 | CCN1CCCC1CN(Cc1cc2cc(C)cc(C)c2[nH]c1=O)C(=O)Nc1ccccc1OC (stereo unspecified) |  | inactive
13 | CN1CCN(C(=O)c2ccc(-c3ccc(Br)cc3)o2)CC1 |  | inconclusive: -8.12%
14 | Cc1ccc2c(CN3CCN(S(=O)(=O)/C=C/c4ccccc4)CC3)cc(=O)oc2c1 |  | inactive
15 | CCCNC(=O)Cn1nc(C(F)(F)F)c2c1CCCC2 | inconclusive: 10.3 µM [falling, partial curve] | 
16 | CC(=O)c1cc2c(=O)c3cc(C)ccc3oc2nc1C |  | inconclusive: 7.66%
17 | Cc1cccc(Cn2nnc3c2C(=O)c2ccccc2C3=O)c1 |  | inactive
18 | N#Cc1c(NC(=O)c2ccccc2)sc2c1CCC2 | inconclusive: 0.259 µM [rising, full curve, poor fit] | 
19 | Clc1ccc(OCCn2c(-c3ccco3)nc3ccccc32)cc1 |  | inconclusive: 7.66%
20 | CC(C)C(=O)NC(=S)N1CCc2ccccc21 |  | inconclusive: -1.72%
21 | COc1ccc(-c2cc(C(=O)N3CCCCCC3)no2)cc1 | inconclusive: 31.6 µM [falling, single point] | 

Row | SMILES | Potency | activity change, negative = inhibition
22 | Cc1ccc(NC(=O)Nc2ccc3c(c2)CCC3)cc1C |  | inconclusive: 10.9%
23 | COc1ccc(-c2cn[nH]c2-c2ccc(OCc3ccccc3F)cc2O)cc1OC | inconclusive: 28.2 µM [falling, single point] | 
24 | O=S(=O)(NCc1ccc(Cl)cc1)NCc1ccccc1F |  | inconclusive: 11.5%
25 | O=C(C(=O)N1CCCc2ccccc21)c1c[nH]c2ccccc12 | inconclusive: 11.2 µM [falling, partial curve] | 
26 | C/C(CC(=O)Nc1ccc(OCc2ccccc2)cc1)=N\NC(=O)C(=O)Nc1cccc(C)c1 | inconclusive: 18.4 µM [falling, partial curve] | 
27 | CN(Cc1ccccc1)C(=O)c1[nH]cnc1C(=O)N[C@@H](Cc1ccccc1)C(=O)OCc1ccccc1 | inconclusive: 15.8 µM [falling, single point] | 
28 | O=C(NCc1ccccc1Cl)C1CCC(CNc2nc(=S)[nH]c3ccccc23)CC1 (stereo unspecified) |  | inconclusive: -0.0136%
29 | Cc1ccc2nc(CSc3nnc(Nc4ccccc4F)s3)cc(=O)n2c1 | inconclusive: 4.61 µM [falling, partial curve] | 
30 | Cc1nnc(SCC(=O)Nc2cc(C(F)(F)F)ccc2N2CCOCC2)o1 |  | inconclusive: 5.01%
31 | COc1ccc2cc(C(=O)N3CCN(C)CC3)[nH]c2c1 | inconclusive: 15.8 µM [falling, single point] | 
32 | COc1ccc(C(=O)c2cnc(C(C)C)n2C)cc1 |  | inconclusive: 15.4%
33 | CC(=O)O[C@H]1C2OC(=O)C(C)=C2[C@@H]2OC(=O)[C@]3(CCC4OC41C)OC23 (stereo partly specified) |  | inactive
34 | COc1ccc(-n2c(Cc3ccccc3)nnc2SCc2ccc([N+](=O)[O-])cc2)cc1 |  | inactive
35 | CC(C)c1nc2cc(C(=O)N3CCNC(=O)C3c3cccc(F)c3)ccc2o1 (stereo unspecified) |  | inactive
36 | S=c1[nH]nc(-c2ccccc2)n1/N=C/c1cccc(Cl)c1 |  | inactive
37 | CCc1nnc(NC(=O)c2ccc(Cl)nc2)s1 |  | inconclusive: 11.3%
38 | Cc1ccccc1-n1nnnc1SCC(=O)c1c(N)n(C2CC2)c(=O)[nH]c1=O |  | inactive
39 | O=C(N=C1SC2CS(=O)(=O)CC2N1Cc1ccccc1Cl)C1CCCO1 (stereo unspecified) |  | inactive
40 | COc1ccc2[nH]cc(C(=O)CN3CCCC(C)(C)C3)c2c1 |  | inconclusive: 0.902%
41 | Cc1ccc(Cn2c(CN(C)Cc3ccccc3)nc3c2c(=O)n(C)c(=O)n3C)cc1 |  | inconclusive: 8.65%
42 | CC(=O)NC(Nc1nc2c(s1)CCCC2)(C(F)(F)F)C(F)(F)F |  | inactive

Row | SMILES | Potency | activity change, negative = inhibition
43 | c1ccc(Cc2cc(-c3ccccc3)on2)cc1 |  | inconclusive: 16.9%
44 | O=C(COc1ccc([N+](=O)[O-])cc1)Nc1cc(C(=O)O)cc(C(=O)O)c1 | inconclusive: 14.1 µM [falling, partial curve, poor fit] | 
45 | Cc1nn(Cc2c(F)c(F)c(F)c(F)c2F)c(C)c1NC(=O)c1ccc(COc2cc(Cl)ccc2Cl)cc1 |  | inconclusive: 7.27%
46 | O=C(Nc1ccccc1Cl)c1ccc(COc2ccc3c(c2)CCC3)cc1 | inconclusive: 23.1 µM [falling, partial curve] | 
47 | CCn1c(=N)n(CC(O)c2ccco2)c2ccccc21 (stereo unspecified) |  | inactive
48 | O=C(NCCC1CCCCN1S(=O)(=O)c1ccc(F)cc1)C(=O)Nc1ccccc1 (stereo unspecified) |  | inconclusive: 14.4%
49 | O=c1[nH][nH]c(C(F)(F)F)c1C=Nc1ccccc1 |  | inactive
50 | Cc1cc(C)c2c(n1)sc1c(=O)n(CC(=O)c3ccccc3)cnc12 |  | inconclusive: -1.06%
51 | CN1CCN(/N=C/c2ccc(OCc3ccccc3)cc2)CC1 | inconclusive: 20 µM [rising, partial curve, poor fit] | 
52 | C#CCn1c(=NC(=O)CSC(C)=O)sc2cc(F)ccc21 |  | inconclusive: -4.28%
53 | COc1ccccc1NC(=O)C1(C)Cc2ccccc2C(=O)O1 (stereo unspecified) |  | inconclusive: -29.2%
54 | CC1CN(C(=O)Nc2ccc3snnc3c2)c2ccccc21 (stereo unspecified) |  | inconclusive: 2.54%
55 | CCOC(=O)C1(CCCc2ccccc2)CCN(Cc2nccn2CC)CC1 |  | inactive
56 | Cc1ccc(C(=O)Nc2ccccc2[N+](=O)[O-])cc1S(=O)(=O)N1CCOCC1 |  | inactive
57 | CC(=O)O/N=C(/c1nonc1N)N1CCN(c2ccc([N+](=O)[O-])cc2Cl)CC1 |  | inconclusive: 4.38%
58 | COc1cc2nc(NC(=O)c3ccc(S(=O)(=O)N4CCCC4)cc3)sc2cc1OC |  | inconclusive: 2.81%
59 | O=C(COCc1cc(-c2ccc3c(c2)OCO3)on1)N1CCN(c2cccc(C(F)(F)F)c2)CC1 |  | inconclusive: 1.38%
60 | CC(C)NC(=O)CSc1nnc(COc2ccccc2Cl)o1 |  | inconclusive: 5.68%
61 | CC(OC(=O)c1cccc(-n2cnnn2)c1)C(=O)c1ccccc1 (stereo unspecified) |  | inconclusive: 12.2%
62 | CCC(=O)c1ccc(OCC(O)CN2CCOCC2)cc1 (stereo unspecified) | inconclusive: 6.51 µM [rising, partial curve, poor fit] | 
63 | C/C(=N\NC(=O)c1ccoc1C)c1ccccc1O | inconclusive: 25.1 µM [falling, single point] | 

Reformatted: entries from further up

| Row | SMILES | Potency | activity change, negative = inhibition |
| --- | --- | --- | --- |
| 40 | COc1ccc2[nH]cc(C(=O)CN3CCCC(C)(C)C3)c2c1 |  | inconclusive: 0.902% |
| 41 | Cc1ccc(Cn2c(CN(C)Cc3ccccc3)nc3c2c(=O)n(C)c(=O)n3C)cc1 |  | inconclusive: 8.65% |
| 42 | CC(=O)NC(Nc1nc2c(s1)CCCC2)(C(F)(F)F)C(F)(F)F |  | inactive |
| 43 | c1ccc(Cc2cc(-c3ccccc3)on2)cc1 |  | inconclusive: 16.9% |
| 45 | Cc1nn(Cc2c(F)c(F)c(F)c(F)c2F)c(C)c1NC(=O)c1ccc(COc2cc(Cl)ccc2Cl)cc1 |  | inconclusive: 7.27% |
| 46 | O=C(Nc1ccccc1Cl)c1ccc(COc2ccc3c(c2)CCC3)cc1 | inconclusive: 23.1 µM [falling, partial curve] |  |
| 47 | CCn1c(=N)n(CC(O)c2ccco2)c2ccccc21 (stereo unspecified) |  | inactive |
| 48 | O=C(NCCC1CCCCN1S(=O)(=O)c1ccc(F)cc1)C(=O)Nc1ccccc1 (stereo unspecified) |  | inconclusive: 14.4% |
| 49 | O=c1[nH][nH]c(C(F)(F)F)c1C=Nc1ccccc1 |  | inactive |
| 51 | CN1CCN(/N=C/c2ccc(OCc3ccccc3)cc2)CC1 | inconclusive: 20 µM [rising, partial curve, poor fit] |  |
| 52 | C#CCn1c(=NC(=O)CSC(C)=O)sc2cc(F)ccc21 |  | inconclusive: -4.28% |
| 53 | COc1ccccc1NC(=O)C1(C)Cc2ccccc2C(=O)O1 (stereo unspecified) |  | inconclusive: -29.2% |
| 54 | CC1CN(C(=O)Nc2ccc3snnc3c2)c2ccccc21 (stereo unspecified) |  | inconclusive: 2.54% |
| 55 | CCOC(=O)C1(CCCc2ccccc2)CCN(Cc2nccn2CC)CC1 |  | inactive |
| 56 | Cc1ccc(C(=O)Nc2ccccc2[N+](=O)[O-])cc1S(=O)(=O)N1CCOCC1 |  | inactive |
| 57 | CC(=O)O/N=C(/c1nonc1N)N1CCN(c2ccc([N+](=O)[O-])cc2Cl)CC1 |  | inconclusive: 4.38% |
| 58 | COc1cc2nc(NC(=O)c3ccc(S(=O)(=O)N4CCCC4)cc3)sc2cc1OC |  | inconclusive: 2.81% |
| 59 | O=C(COCc1cc(-c2ccc3c(c2)OCO3)on1)N1CCN(c2cccc(C(F)(F)F)c2)CC1 |  | inconclusive: 1.38% |
| 60 | CC(C)NC(=O)CSc1nnc(COc2ccccc2Cl)o1 |  | inconclusive: 5.68% |
| 61 | CC(OC(=O)c1cccc(-n2cnnn2)c1)C(=O)c1ccccc1 (stereo unspecified) |  | inconclusive: 12.2% |
| 63 | C/C(=N\NC(=O)c1ccoc1C)c1ccccc1O | inconclusive: 25.1 µM [falling, single point] |  |

Later entries.

Row | SMILES | Potency | activity change, negative = inhibition
64 | COc1ccccc1Cc1nnc(NC(=O)C2CCN(C(=O)c3ccco3)CC2)s1 |  | inactive
65 | Cc1ccc(C)n1-c1ccccc1N | inconclusive: 18.4 µM [falling, partial curve] | 
66 | CC(C)N1CCC(N2CCN(Cc3ccc(Oc4ncccn4)cc3)CC2CCO)CC1 (stereo unspecified) |  | inconclusive: 3.53%
67 | O=C(Nc1ccc2c(c1)OCO2)c1cnc(Cl)c(Cl)c1 |  | inconclusive: 12.5%
68 | Cc1cc(C(=O)NN=C2CCCCCC2)c(C)o1 | inconclusive: 35.5 µM [rising, single point] | 
69 | COCC1CCCN(C(=O)c2ccc3oc(C(C)C)nc3c2)C1 (stereo unspecified) |  | inconclusive: -0.943%
70 | O=C(N/N=C/c1ccc([N+](=O)[O-])cc1)c1c[nH]c2ccccc12 | inconclusive: 11.2 µM [falling, partial curve, poor fit] | 
71 | Cc1nn(Cc2cccc(C(=O)NC(C)c3ccc(C(C)(C)C)cc3)c2)c(C)c1[N+](=O)[O-] (stereo unspecified) | inconclusive: 16.4 µM [rising, partial curve, poor fit] | 
72 | CCC(C)c1ccc(NC(=O)CSc2nncn2N)cc1 (stereo unspecified) |  | inconclusive: 8.4%
73 | c1ccc(-c2noc(-c3ccncc3)n2)nc1 |  | inactive
74 | Cc1nc2cc(NC(=O)c3ccc(Cl)cc3)ccc2n1C | inconclusive: 15.8 µM [falling, partial curve] | 
75 | COc1ccccc1CN(C(=O)Cc1cccs1)C(C(=O)NC1CCCC1)c1ccncc1 (stereo unspecified) |  | inconclusive: 0.36%
76 | COC(=O)c1ccc(CSc2nc3sc(C)c(C)c3c(=O)[nH]2)cc1 | inconclusive: 35.5 µM [rising, single point] | 
77 | CCCCCCCn1c(=N)n(CC(=O)c2ccco2)c2ccccc21 |  | inconclusive: 10.9%
78 | CC(C)(C)OC(=O)C[C@H]1C/C=C\C[C@H](CC(=O)N[C@H](CO)Cc2ccccc2)C(=O)N[C@H](C(C)(C)C)COC1=O |  | inconclusive: 4.15%
79 | COC(CNC(=O)c1ccc(CS(=O)(=O)c2ccccc2)o1)OC |  | inconclusive: -2.34%
80 | CCCCOc1ccc(Cn2c(=O)oc3ccccc32)cc1 |  | inactive
81 | Cc1ccc(N2C(=O)CC(Sc3ncn[nH]3)C2=O)cc1C (stereo unspecified) |  | inconclusive: 1.33%
